Among the data in PMC6677536 (2019) are binding values, retold here.

The chains behind the UniProt entries cited, without tags or fusion partners.
UniProt Q9VV73: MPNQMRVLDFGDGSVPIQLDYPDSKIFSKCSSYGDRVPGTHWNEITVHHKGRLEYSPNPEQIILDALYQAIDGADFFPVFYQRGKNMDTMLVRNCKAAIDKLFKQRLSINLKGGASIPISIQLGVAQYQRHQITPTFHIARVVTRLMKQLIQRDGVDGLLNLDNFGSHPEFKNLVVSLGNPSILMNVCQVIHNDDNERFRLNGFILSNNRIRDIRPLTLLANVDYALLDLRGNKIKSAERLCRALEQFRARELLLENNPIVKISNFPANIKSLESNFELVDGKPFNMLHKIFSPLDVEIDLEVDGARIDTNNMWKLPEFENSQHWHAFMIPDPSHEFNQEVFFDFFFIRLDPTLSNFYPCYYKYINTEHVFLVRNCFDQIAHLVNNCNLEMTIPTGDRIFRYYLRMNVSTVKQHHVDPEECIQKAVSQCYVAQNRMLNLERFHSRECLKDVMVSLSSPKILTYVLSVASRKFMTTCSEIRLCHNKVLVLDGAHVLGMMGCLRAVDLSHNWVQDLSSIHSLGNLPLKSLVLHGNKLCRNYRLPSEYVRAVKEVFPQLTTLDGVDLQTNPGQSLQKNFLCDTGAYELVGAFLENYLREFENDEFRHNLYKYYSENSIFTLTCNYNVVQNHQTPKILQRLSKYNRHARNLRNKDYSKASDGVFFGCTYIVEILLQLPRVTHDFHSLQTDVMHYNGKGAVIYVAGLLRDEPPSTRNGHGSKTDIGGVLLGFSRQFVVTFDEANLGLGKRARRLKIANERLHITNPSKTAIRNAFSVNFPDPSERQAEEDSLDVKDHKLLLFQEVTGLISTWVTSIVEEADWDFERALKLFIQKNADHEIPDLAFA

No constants are given. Whether binding was seen depends on the method and setting. Binding seen in cells or lysates may run through a third protein. Some results given as binding are weak or reduced against the parent protein; the word gives no strength.

The target in this assay is Nxf2 expression construct in OSCs (D. melanogaster) (UniProt Q9VV73). Nature of the assay: co-IP; FLAG-tag co-immunoprecipitation (anti-FLAG M2 magnetic beads, 2 hr at 4°C) from lysates of transfected OSCs; western blot.

B1: Piwi in OSC lysate (protein, UniProt Q9VKM1 1-843)
chain: MADDQGRGRRRPLNEDDSSTSRGSGDGPRVKVFRGSSSGDPRADPRIEASRERRALEEAPRREGGPTERKPWGDQYDYLNTRPAELVSKKGTDGVPVMLQTNFFRLKTKPEWRIVHYHVEFEPSIENPRVRMGVLSNHANLLGSGYLFDGLQLFTTRKFEQEITVLSGKSKLDIEYKISIKFVGFISCAEPRFLQVLNLILRRSMKGLNLELVGRNLFDPRAKIEIREFKMELWPGYETSIRQHEKDILLGTEITHKVMRTETIYDIMRRCSHNPARHQDEVRVNVLDLIVLTDYNNRTYRINDVDFGQTPKSTFSCKGRDISFVEYYLTKYNIRIRDHNQPLLISKNRDKALKTNASELVVLIPELCRVTGLNAEMRSNFQLMRAMSSYTRMNPKQRTDRLRAFNHRLQNTPESVKVLRDWNMELDKNVTEVQGRIIGQQNIVFHNGKVPAGENADWQRHFRDQRMLTTPSDGLDRWAVIAPQRNSHELRTLLDSLYRAASGMGLRIRSPQEFIIYDDRTGTYVRAMDDCVRSDPKLILCLVPNDNAERYSSIKKRGYVDRAVPTQVVTLKTTKNRSLMSIATKIAIQLNCKLGYTPWMIELPLSGLMTIGFDIAKSTRDRKRAYGALIASMDLQQNSTYFSTVTECSAFDVLANTLWPMIAKALRQYQHEHRKLPSRIVFYRDGVSSGSLKQLFEFEVKDIIEKLKTEYARVQLSPPQLAYIVVTRSMNTRFFLNGQNPPPGTIVDDVITLPERYDFYLVSQQVRQGTVSPTSYNVLYSSMGLSPEKMQKLTYKMCHLYYNWSGTTRVPAVCQYAKKLATLVGTNLHSIPQNALEKKFYYL
Regarding B1, the binding result was “binds weakly”.
